The values below come from patent US20190240171.

Data set [1] has as its target T1, ATF4 (UniProt Q06507).
T1 sequence (looked up, limits assumed): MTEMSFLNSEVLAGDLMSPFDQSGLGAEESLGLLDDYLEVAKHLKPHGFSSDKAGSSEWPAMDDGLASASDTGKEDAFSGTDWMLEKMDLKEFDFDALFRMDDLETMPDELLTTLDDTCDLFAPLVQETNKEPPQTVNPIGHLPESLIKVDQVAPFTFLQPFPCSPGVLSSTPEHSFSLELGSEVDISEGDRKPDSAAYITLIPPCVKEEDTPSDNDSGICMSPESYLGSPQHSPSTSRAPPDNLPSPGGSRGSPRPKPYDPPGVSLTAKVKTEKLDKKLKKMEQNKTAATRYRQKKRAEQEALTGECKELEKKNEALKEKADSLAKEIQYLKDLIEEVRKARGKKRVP
As to the kind of experiment: activity in cells. The note with it: luciferase reporter transactivation, ATDC5 cells; motif-containing Sox9 promoter; protein in cells.

In data set [2] the target is T1, ATF4. As to the kind of experiment: binding assay. The note with it: ChIP-PCR, E15.5 WT and C10-ATF4 limbs; the exact amplicon is not stated, SEQ 2 is the reported ATF4 peak region; protein in cells.

For some assays here: Results from cells or extracts need not show a direct contact. Tags and fusion partners may be left off the protein sequences shown. For some assays here: For at least one entry, the source does not settle the construct or the ends of the probe.

Turning to “GTCACCCAAACATTTGCTTCCAAAAGACCATTTCTAAGCACTTTTTTTGGAAGCCGGCAGACTCCAGGCGCAGAAGCCCAGCTCCGCTTTGACGAGCAGCTGTTGCAATTTCCATTGCTGTAAACGCCAGCGAAGTCCCGGGTACCAC (double strand)”, the “activity on this sequence” value in the data set with ATF4 [1] is “active”. For the same sequence, in the data set with ATF4 [2], the binding result is reported as “binds”.
